Consider four molecules from paper PMC11339278 (2024).

The chains behind the UniProt entries cited, without tags or fusion partners. Where a name states a change or a piece, a line headed by the entry shows the natural chain unless it says otherwise.
UniProt Q15036: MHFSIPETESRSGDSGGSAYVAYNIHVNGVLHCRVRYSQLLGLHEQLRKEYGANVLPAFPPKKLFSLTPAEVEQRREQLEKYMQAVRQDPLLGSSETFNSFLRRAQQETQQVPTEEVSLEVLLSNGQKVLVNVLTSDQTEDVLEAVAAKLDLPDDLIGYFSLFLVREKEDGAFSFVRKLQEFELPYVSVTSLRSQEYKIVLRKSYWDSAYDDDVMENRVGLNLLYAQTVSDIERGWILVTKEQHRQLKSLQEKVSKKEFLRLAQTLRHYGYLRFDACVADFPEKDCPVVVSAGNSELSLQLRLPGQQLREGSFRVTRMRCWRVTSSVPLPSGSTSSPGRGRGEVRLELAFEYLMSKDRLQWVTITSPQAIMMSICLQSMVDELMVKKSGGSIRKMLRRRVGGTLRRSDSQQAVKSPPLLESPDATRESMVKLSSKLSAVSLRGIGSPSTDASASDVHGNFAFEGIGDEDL

The target of test [1] is SNX17ΔC (residue 1-390) with an intramolecular decaHis tag (human) (UniProt Q15036). Kind of test: condition: only SNX17ΔC saturated with LRP1 peptide (from a previous ITC run); ITC; 2 mM SNX17 tail peptide injected into 20 μM SNX17ΔC saturated with LRP1 peptide (from a previous ITC run); 10 °C; 500 mM NaCl, 100 mM Tris pH 8.0, 5% glycerol; both purified.
Test [2] has the same target. Kind of test: ITC; Microcal PEAQ, 10 °C, 500 mM NaCl, 100 mM Tris pH 8.0, 5% glycerol; 250 µM APP or LRP1 peptide, or 2 mM SNX17 tail peptide, injected into 20 µM SNX17 FL or SNX17ΔC; single site binding model; both purified.
The target is the same in test [3]. Kind of test: condition: only SNX17ΔC pre-incubated (saturated) with the LRP1 peptide; 2 mM tail peptide into 20 µM SNX17ΔC; ITC; as a4, but 2 mM SNX17 tail peptide injected into 20 µM SNX17ΔC saturated with LRP1 peptide (from a previous ITC run); both purified.

No constants are given. Whether binding was seen depends on the method and setting. For some assays here: Binding calls can cover weak binding; strength is not graded here.

As for SASDVHGNFAFEGIGDEDL (peptide, UniProt Q15036 452-470) [SNX17 tail synthetic peptide (452-470)], the binding result in test [1] is listed as “no binding”.

For the molecule SASDVHGNFAFEGIGDEDL [synthetic peptide of the SNX17 tail (452-470)], the figures for the binding result in test [2] and in test [3] were “binds weakly” and “no binding”, respectively.

As for NGYENPTYKFFEQM [APP cargo recognition peptide (755-768)], the binding result in test [2] is given as “binds”.

Take VEIGNPTYKMYEGG [LRP1 cargo recognition peptide (4466-4479)]: the binding entry in test [2] was “binds”.
